These are yes or no findings as the source states them, for the method shown. Binding seen in cells or lysates may run through a third protein. Here binding means that the protein was enriched with, or labelled near, the bait; the list need not be complete. No binding means not detected with the bait.
T1: PfATAD3-3xHA (PF3D7_0707400, ATPase family AAA+ domain containing protein 3 of P. falciparum) (P. falciparum) (UniProt C0H4M1)
T1 sequence: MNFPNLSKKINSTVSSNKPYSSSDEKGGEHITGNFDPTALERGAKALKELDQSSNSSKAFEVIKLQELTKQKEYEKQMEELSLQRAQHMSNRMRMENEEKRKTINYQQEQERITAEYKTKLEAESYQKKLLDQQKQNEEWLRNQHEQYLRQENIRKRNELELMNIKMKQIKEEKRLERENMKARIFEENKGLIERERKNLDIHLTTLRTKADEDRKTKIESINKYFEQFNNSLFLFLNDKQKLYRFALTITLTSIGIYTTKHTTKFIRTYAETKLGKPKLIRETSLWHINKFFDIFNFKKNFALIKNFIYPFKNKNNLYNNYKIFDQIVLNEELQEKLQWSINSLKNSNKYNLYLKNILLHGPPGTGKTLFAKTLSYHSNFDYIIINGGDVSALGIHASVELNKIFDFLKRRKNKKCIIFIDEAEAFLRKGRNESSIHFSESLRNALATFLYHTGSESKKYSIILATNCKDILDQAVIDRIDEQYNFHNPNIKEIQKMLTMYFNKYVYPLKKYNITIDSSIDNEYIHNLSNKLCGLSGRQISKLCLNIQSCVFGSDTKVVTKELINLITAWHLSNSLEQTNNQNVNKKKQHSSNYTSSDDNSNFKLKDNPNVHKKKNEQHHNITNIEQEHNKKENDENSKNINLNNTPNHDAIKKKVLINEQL

Chains of the proteins cited; added tags and fusions are not shown.
UniProt Q02768: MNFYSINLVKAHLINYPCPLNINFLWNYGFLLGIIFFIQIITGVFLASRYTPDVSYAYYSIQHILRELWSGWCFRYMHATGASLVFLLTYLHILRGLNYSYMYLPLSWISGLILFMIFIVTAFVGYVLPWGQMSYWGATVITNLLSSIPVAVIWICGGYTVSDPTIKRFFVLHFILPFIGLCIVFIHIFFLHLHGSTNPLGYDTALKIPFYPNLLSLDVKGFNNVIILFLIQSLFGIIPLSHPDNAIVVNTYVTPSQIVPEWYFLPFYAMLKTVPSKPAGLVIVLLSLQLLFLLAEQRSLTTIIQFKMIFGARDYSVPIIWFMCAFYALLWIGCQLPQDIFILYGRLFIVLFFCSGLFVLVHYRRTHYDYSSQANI


Molecular target: T1, PfATAD3-3xHA (PF3D7_0707400, ATPase family AAA+ domain containing protein 3 of P. falciparum) (P. falciparum)
Test: affinity purification with mass spectrometry; anti-HA magnetic beads; parasite pellets of PfATAD3-HA/TOM22-mNG parasites solubilised with 2% digitonin overnight at 4 C; beads incubated with supernatant overnight at 4 C; washed three times with Native Wash buffer (25 mM HEPES, 10 mM MgCl2, 50 mM KCl, 100 mM NaCl, 0.2% digitonin); untagged NF54 wildtype parasites as negative control; triplicate, LFQ

binding | Molecule
no binding | cytochrome b (from UniProt Q02768 1-376)
binds | shewanella-like protein phosphatase (enzyme)
binds | syntaxin
binds | PfTIM50 (Translocase of the Inner Mitochondrial Membrane 50)
no binding | cytochrome c oxidase III
binds | PfTIM23 (Translocase of the Inner Mitochondrial Membrane 23)
binds | PF3D7_1119600 (a putative PfFTSH zinc metalloprotease) (protein, UniProt Q8IIH1 1-1052) MYRADIIRKKSTCLLLPSEKNAFQKKKWLLKKSLDNLLDYNNTQKECLHSLSYLKDRINNNNNNNMKNGYKELAVCSSSIKYNSNVDYNIFFDSLNFICEHVQNIWSNKNKHVQINENISNMFVKFLKKYNHFKNGNYKIKNRLYKKDSFIKPSNYLQSFLLNGKCDEGEKIIKKILKDNKSLKSIKKKIMRKNEDFIWSRERNMTNLSGHNQSEHTLGESIINNNNNNNIINNVIKKHMSFTNSRYIGFLNNNVSKYKLNFFQFLKNMYLSKAPKGFERFENKSPNSNNFKPEEEKPRKYDNYFFYIFFILLLFFLLFVDSNGLYNEITQNDFFYKYLSKGYVEKIKLINKDYVKAYLNSHGIKKYHMKYVSFRVGNSDSFEKKVEAVQREMNIKRDELIEVQYVNEANILNEVKGYIPSILFFLLLIFLFQKITLKNVTNSGMDKLFKFSKISPINKNSLKTDVKFSSVAGMKQAKEEIMEFVDFLKNPTKYEILGAKIPKGALLCGAPGTGKTLLAKAVAGEANVPFFNISGSDFIEVFVGIGPSRVRELFAQARKHAPSIIFIDEIDAVGRKRSKGGFSGGGNDERENTLNQMLVEMDGFHTSNDKVVVLAGTNRVDILDPAITRPGRFDRIVNISKPDINERSEIFQVHLKNLKLHESLDIKNISYILASLTPGFVGADIANVVNEGAIQCARRSNLLGVQIKDFELAIERVIGGLPKSSSLISPLEKKIISYHETGHALIGWFLEFADPVLKVSIIPRNNGALGYSQHLSEEIMLFSRDAILDKIAVILGGRAAEELFIGKITTGAIDDLNKVTQLAYSYVSQYGMNQEIGLVSFQPNSNSEYNLYRPHSECLAHLIDNEVRSLIETQYKRVKSILMKNEKHVHNLANLLYEKETISYHDIVKCVGERPYPVKSAYEKFVKANPYKAISSEPLLEDKKESDNMKGDTSNIGNVNTNDFEKGHIKENTKECTKENTKENTKDNTKENTKENTKEYTKDNTKNQYNILGNSSKDDTKQTSSKLNEEKCKEKLGDSKKKDNKISNVKLR
binds | flap endonuclease I (PF3D7_0408500) (enzyme, UniProt Q7K734 1-672) MGIKGLTKFIADAAPNAIKEIKIESLMGRIIAIDASMSLYQFIIAIRDSEQYGNLTNESGETTSHISGLMSRSIRLMENGLKPIYVFDGAPPELKGSELEKRGEKRQKAEELLKKAKEEGNLEEIKKQSGRTVRVTRKQNEEAKKLLTLMGIPIIEAPCEAESQCAFLTKYNLAHATATEDADALVFGTKILIRNLNANATSNQNKNKNNSKRGYILTEINLEQVLKGLNLTMDEFIDFCILCGCDYCDTIKGIGSKTAYNLIKEYNCIEKIIENIDQNKYQVPSNFRFQEARKSFINPNVLPKEDIKIDWNEPQIEELKHFLIKDYNFNELRVTNYINRLLKARKVTTQRRLDNFFTACTKKSTKLIVEETKKEQTLPARKGKKRPTAGDKNKQKAVKRKIEQANANGHHKMKEENKSVDNEKNEDGIKSVDNEKNEDGIKSVDDEKNLDDEKNLDDEKNKDDEKNKDDEKNKDDEKNKDDEKNKDDEKKSLDNFSSNLFDSDKESESGNIIKNEKQNMDDEKINDNLPSLFGDHSRIRHTENKDNISDINNNNNNNNSSSNNNNISNNHFNSVSSNSTFNSSTKLKSEDTLKSNSPLKEDSPNSYNNIKNNNHTININSQINNHKEPISNNNLNNINNSTEIKKKNTLFLLPFCPKDVTNVKKKKYTQRC
no binding | cytochrome c oxidase I (protein, UniProt Q02766 1-476) MVLNRYSLITNCNHKTLGLYYLWFSFLFGSYGFLLSVILRTELYSSSLRIIAQENVNLYNMIFTIHGIIMIFFNIMPGLFGGFGNYFLPILCGSPELAYPRINSISLLLQPIAFVLVILSTAAEFGGGTGWTLYPPLSTSLMSLSPVAVDVIIFGLLVSGVASIMSSLNFITTVMHLRAKGLTLGILSVSTWSLIITSGMLLLTLPVLTGGVLMLLSDLHFNTLFFDPTFAGDPILYQHLFWFFGHPEVYILILPAFGVISHVISTNYCRNLFGNQSMILAMGCIAVLGSLVWVHHMYTTGLEVDTRAYFTSTTILISIPTGTKVFNWICTYMSSNFGMIHSSSLLSLLFICTFTFGGTTGVILGNAAIDVALHDTYYVIAHFHFVLSIGAIIGLFTTVSAFQDNFFGKNLRENSIVILWSMLFFVGVILTFLPMHFLGFNVMPRRIPDYPDALNGWNMICSIGSTMTLFGLLIFK
